Paper PMC5946109
No constants are given. Whether binding was seen depends on the method and setting. In cells and extracts the contact can be indirect. Here binding means that the protein was enriched with, or labelled near, the bait; the list need not be complete.

Target: T1, BirA*-TubC (Dictyostelium discoideum) (UniProt Q55AR3)
T1 sequence: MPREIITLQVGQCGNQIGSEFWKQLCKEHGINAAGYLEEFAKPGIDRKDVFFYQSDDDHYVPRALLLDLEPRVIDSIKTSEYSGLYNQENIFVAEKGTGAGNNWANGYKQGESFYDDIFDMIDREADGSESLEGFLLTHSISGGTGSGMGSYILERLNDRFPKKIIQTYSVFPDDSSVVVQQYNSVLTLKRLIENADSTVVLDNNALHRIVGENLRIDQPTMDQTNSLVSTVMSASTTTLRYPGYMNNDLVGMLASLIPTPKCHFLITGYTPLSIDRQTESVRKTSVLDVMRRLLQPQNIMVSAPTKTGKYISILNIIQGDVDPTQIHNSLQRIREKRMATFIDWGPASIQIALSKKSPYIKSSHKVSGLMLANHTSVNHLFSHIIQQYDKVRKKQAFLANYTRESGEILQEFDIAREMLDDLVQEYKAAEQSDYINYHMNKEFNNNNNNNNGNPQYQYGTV
Assay: proximity labelling; BioID in Dictyostelium strains expressing biotinylase-tagged proteins; extracts of isolated centrosomes blotted in parallel with streptavidin-alkaline phosphatase and specific antibodies

Row | Substance | binding
1 | CDK5RAP2 | binds
2 | CP148 | binds
